Results are given in words; binding and its absence hold for the method and conditions named. In cells and extracts the contact can be indirect. Some results given as binding are weak or reduced against the parent protein; the word gives no strength. For part of these data: Tags and fused reporters may be left off the sequences shown. Each block holds one molecule with its values, some of them ahead of it.
Columns and labels:
Assay in all cases: split reporter; BiLC with competition: living HeLa cells, triple transfection of the reporter pair with a third plasmid (CMV promoter) for an untagged partner, or empty vector as control
[1] = target: Sec61β, N-terminally tagged with SmBiT (UniProt P60468)
[2] = target: Sec63, N-terminally tagged with SmBiT (UniProt Q9UGP8)
[3] = target: T1, TRAPβ, C-terminally tagged with SmBiT (UniProt P43308)
T1 sequence: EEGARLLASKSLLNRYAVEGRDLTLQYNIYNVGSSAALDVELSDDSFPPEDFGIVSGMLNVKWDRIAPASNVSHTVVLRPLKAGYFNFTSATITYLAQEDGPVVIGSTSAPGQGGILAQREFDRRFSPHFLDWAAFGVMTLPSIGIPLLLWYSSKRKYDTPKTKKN

Protein sequences, listed by entry. Tags and fused reporters are not part of them.
UniProt P60468: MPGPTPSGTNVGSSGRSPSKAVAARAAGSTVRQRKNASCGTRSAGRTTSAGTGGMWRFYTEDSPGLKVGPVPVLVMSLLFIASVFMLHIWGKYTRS
UniProt Q9UGP8: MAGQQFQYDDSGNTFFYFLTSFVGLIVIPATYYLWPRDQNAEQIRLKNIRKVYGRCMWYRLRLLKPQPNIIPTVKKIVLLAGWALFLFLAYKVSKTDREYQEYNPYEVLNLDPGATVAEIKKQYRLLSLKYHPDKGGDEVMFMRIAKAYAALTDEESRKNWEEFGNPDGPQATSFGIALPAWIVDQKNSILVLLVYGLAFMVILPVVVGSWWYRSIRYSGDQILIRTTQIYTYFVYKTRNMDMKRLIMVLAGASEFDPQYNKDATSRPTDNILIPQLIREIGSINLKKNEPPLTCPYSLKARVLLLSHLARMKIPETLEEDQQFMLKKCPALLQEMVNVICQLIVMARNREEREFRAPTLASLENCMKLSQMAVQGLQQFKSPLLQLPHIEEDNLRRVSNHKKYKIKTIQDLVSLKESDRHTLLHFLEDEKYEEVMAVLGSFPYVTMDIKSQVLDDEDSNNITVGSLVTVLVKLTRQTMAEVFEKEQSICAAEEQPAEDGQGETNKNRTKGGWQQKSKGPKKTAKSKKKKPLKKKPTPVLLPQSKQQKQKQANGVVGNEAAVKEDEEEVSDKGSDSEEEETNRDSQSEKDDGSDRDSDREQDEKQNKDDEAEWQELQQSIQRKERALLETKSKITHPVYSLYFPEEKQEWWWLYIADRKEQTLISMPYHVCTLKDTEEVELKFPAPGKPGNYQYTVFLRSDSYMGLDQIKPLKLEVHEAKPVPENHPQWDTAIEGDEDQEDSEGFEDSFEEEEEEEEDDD
UniProt P61619: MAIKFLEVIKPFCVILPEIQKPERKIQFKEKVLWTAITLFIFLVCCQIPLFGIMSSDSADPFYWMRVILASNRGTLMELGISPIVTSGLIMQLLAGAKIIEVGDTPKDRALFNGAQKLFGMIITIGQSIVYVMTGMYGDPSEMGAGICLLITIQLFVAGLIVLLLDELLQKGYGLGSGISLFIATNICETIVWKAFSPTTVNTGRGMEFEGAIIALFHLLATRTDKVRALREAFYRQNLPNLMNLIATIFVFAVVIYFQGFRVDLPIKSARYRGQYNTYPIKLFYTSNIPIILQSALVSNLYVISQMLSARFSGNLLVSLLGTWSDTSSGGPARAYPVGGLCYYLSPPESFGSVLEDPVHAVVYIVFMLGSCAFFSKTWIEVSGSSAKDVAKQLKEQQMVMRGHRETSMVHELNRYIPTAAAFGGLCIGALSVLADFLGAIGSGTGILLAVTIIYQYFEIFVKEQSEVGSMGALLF

- binding [1]: binds
Molecule: untagged Sec61α (from UniProt P61619 1-476)

- binding [2]: binds
Molecule: untagged Sec61β (from UniProt P60468 1-96)

- binding [3]: binds
B1: untagged TRAPα (protein, UniProt P43307 19-286)
chain: VLFRGGPRGLLAVAQDLTEDEETVEDSIIEDEDDEAEVEEDEPTDLVEDKEEEDVSGEPEASPSADTTILFVKGEDFPANNIVKFLVGFTNKGTEDFIVESLDASFRYPQDYQFYIQNFTALPLNTVVPPQRQATFEYSFIPAEPMGGRPFGLVINLNYKDLNGNVFQDAVFNQTVTVIEREDGLDGETIFMYMFLAGLGLLVIVGLHQLLESRKRKRPIQKVEMGTSSQNDVDMSWIPQETLNQINKASPRRLPRKRAQKRSVGSDE

Source: PMC8508666
